Data from patent US20160067269A1, “Miltefosin Or Perifosin For Use In The Treatment of IBD” (ACADEMISCH MEDISCH CENTRUM, priority 2013, published 2016).
For at least one compound, name, drawing or mass did not settle the structure.

Columns and labels:
[1] = test system: Peripheral blood lymphocytes; test: lymphocyte proliferation, thymidine incorporation assay; format: cell-based; conditions: miltefosine 61 μM; stimulated with 10 μg/ml PHA for 24 hours
[2] = test system: SCID mice (C.B-17/lcrHsd-Prkcd); test: experimental colitis transfer model (CD45RBHigh cells injected into SCID mice); format: in vivo, mouse
Experimental: To study the application of miltefosine as an anti-inflammatory drug, miltefosine was tested in the experimental colitis transfer model. In this model SCID mice, lacking T and B lymphocytes, are injected with only effector T lymphocytes (CD4^+CD45RB^High) omitting regulatory T lymphocytes (CD4^+CD45RB^Low). The absence of the letter causes, over a period of two months, the development of chronic inflammation of the colon.
Mouse CD4 positive lymphocytes were isolated from the spleen of normal mice (Balb/c OlaHsd). The spleen was removed, forced through a cell strainer to obtain a single cell suspension. Erythrocytes were lysed by adding water, quickly followed by PBS. The remaining cells were enriched in CD4 positive cells by negative depletion using magnetic beads specific for B cell (anti-B220), macrophages (anti-Mac-1) and cytotoxic T lymphocytes (anti-CD8). The remaining cell were washed and labeled for CD4 (CD4-PerCP-Cy5) and CD45RB (CD45RB-FITC). Using a FACS sorter the cell were separated in CD4 cells expressing low levels of CD45RB (CD45RB^Low) and high levels of CD45RB (CD45RB^High).
To induce colitis, SCID mice (C.B-17/lcrHsd-Prkcd) were injected with 5·10^5 CD45RB^High cells.
The mice were divided in three groups, each group containing 10 mice. […] Group two and three both received only CD45RB^High cells and developed colitis. Only group three received miltefosine (50 mg/kg) via oral gavage. Treatment started two weeks after the start of the experiment and was given twice a week until the end of the experiment. The mice were weighted three times a week during the entire duration of the experiment.
Part of the colon of each mouse was embedded in paraffin, cut and stained with hematoxylin and eosin (HE). The pathology score takes in account epithelial cell hyperplasia, leukocyte infiltrations, loss of goblet cells, ulceration and cryptabscesses.

[3] = 50 mg/kg oral gavage twice a week

SMILES: CCCCCCCCCCCCCCCCOP(=O)([O-])OCC[N+](C)(C)C [miltefosine, hexadecyl phosphocholine]
- proliferation of lymphocytes (thymidine incorporation) [1]: successfully suppresses proliferation
- increase in weight of the spleen [2, 3]: significantly reduced
- weight of the colon [2, 3]: significantly improved
- crypt length and thickness of the submucosa and muscle layer ([2]; 50 mg/kg oral gavage twice a week, HE stained colon): clear decrease
- disease score (inflammation and oedema of the colon plus stool consistency) ([2]; 50 mg/kg oral gavage twice a week, compared to the positive control group): significantly lower
- pathology score (HE stained colon) ([2]; 50 mg/kg oral gavage twice a week, scored blindly by a pathologist): significantly reduced
- inflammation and overall condition of the mice ([2]; oral dosages twice a week, 50 mg/kg): reduced inflammation and improved the overall condition of the mice
